# Assay results published in PubChem BioAssay AID1508600 (Functional Genomics Laboratory (NCATS/FGL), 2020).
# Screen size: about 53,000 sequences; about 3,700 (7%) were called active.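 Rule for the calls: active = gene knockdowns whose robust z-score for IL-1 alpha signal is at least 2 or at most -2, so actives lie on both sides; inactive = the rest.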 Some of the results follow.
# Experiment: Components of the Cytosolic LPS Sensing Pathway: Gene Identification via Genome-wide siRNA Screen;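 note: robust z of the log signal after scaling to non-targeting control siRNA wells of the plate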
# Conditions: RAW264.7 macrophages, IL-1a HTRF, actives lie on both sides, screened at 100 nM (by protocol), cells primed 5 h with Pam3CSK4 first
# In short: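 IL-1a HTRF of supernatants after 24 hour LipidA transfection of Pam3CSK4-primed (5 hours) RAW264.7 cells, 48h post-siRNA transfection (100 nM). Scores: percent of plate negative-control median, then log-based robust z-score.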
row,Sequence,z-score
1,CCGCUUCUCUAGUGAAUAATT against Uros,inactive: -1.56
2,GCUGGCUAGUUUGGGCAUATT against Tsc22d4,inactive: 1.27
3,GGGCUCUUAUGUGAACUUUTT against Lman2,inactive: 0.373
4,GUCUGAGAGGAUUGAAACUTT against Manbal,inactive: -0.7
5,GGAUAACUCUUUCAAAGACTT against Lrit2,inactive: 0.768
6,GGCAUCUUCAUCAAGGAUUTT against Sf3a1,inactive: -1.1
7,GCGUAAAUCUCCACACUACTT against Vmn1r54,inactive: -1.57
8,CGUAGCUGUAAUUCUUCAGTT against Pcdhgb2,active: 2.02
9,CGUGAUGGACAGUUUAGACTT against Cenpj,inactive: -1.48
10,GCUCCUACUACUGCUUUGCTT against Crem,inactive: 0.979
11,GCCACCUCAUGAAUAAAAGTT against Cd8b1,inactive: -1.94
12,GGGUGAGAAUCAGCUAUACTT against Coro7,inactive: -0.37
13,GCUCUGUAAUAUACUUGUATT against Gtf2i,inactive: -1.62
14,CCGAUUUGGGUCAAUUUUATT against Usf3,inactive: -0.047
15,GGAGUGACAAAAGAAAUAATT against Nudt12,inactive: 0.489
16,GGACAUCUGGAUGUUCCCATT against Pgghg,inactive: -1.1
17,GGACAUUACACUGUUCAAATT against Kcnh5,inactive: 1.43
18,GGACCACUUUUUCAGACUCTT against Ralgapa1,inactive: 0.945
19,GGACCGUCAGUGUCAUGGATT against Zfp397,active: -2.55
20,GGUGUUUUAAGAUUGAAUGTT against Ccn1,inactive: 0.782
21,CCAAGUCUUGUAGUGGAGUTT against Vdac3,inactive: -0.269
22,GCAGCCUUCGUGAGUCUGUTT against Asb1,inactive: -0.666
23,AGUGCCUGUCUGAUUGCUCTT against Epsti1,inactive: -0.469

row,Sequence,z-score
1,GGCGAGCGACUGUGUAAAGTT against Ccp110,inactive: 0.593
2,GACCUAAGCUCAUUGACCUTT against Vmn1r13,inactive: 0.356
3,GGUACUCGAAUCUGACCUCTT against Nqo1,active: 2.04
4,GCACCGAGUGCAAUAGUGUTT against Kremen1,inactive: -0.129
5,GGUCUAGCUCCAAUUGGAUTT against Inca1,inactive: -0.631
6,UGGUCGGCUAGAUGAUGGATT against Wdr34,inactive: -0.7
7,GAACCUUUUCCGUUUCGAGTT against Cebpb,inactive: -1.14
8,CCAUGUUCUUCUAUGGCUCTT against Sharpin,inactive: -1.36
9,GGAAUGCAGAAAUGAAAAATT against Olfr1234,inactive: -0.909
10,GCUGUAUCAGUCUUUCUAUTT against Cyp27b1,inactive: 0.442
11,GGAUCAUGAACUCUUAGAATT against Gin1,inactive: 0.079
12,GGCUGAUCCUAAGAAAGAATT against Rusf1,inactive: -0.657
13,GCCUGGUAUGAGGAUCUGCTT against Ddit3,inactive: -0.11
14,GGUAGUAUCUGGCAUAAAATT against Fhl4,inactive: 1.83
15,GGAAAGAUAGAAGACAAACTT against Spry4,inactive: -0.0777
16,CCAUGGUUCUCAUUAGUAATT against Adk,inactive: -1.29
17,GCUCCAUGAAUGUCCAACATT against Sphkap,active: -2.41
18,GCGGUAGGGAUGAAAUAGUTT against Ccnd1,inactive: 1.06
19,GCUAAUUGAGACCUAUUUCTT against Plp1,inactive: -1.5
20,GGACUUGUUAGCGCAUCUCTT against Psmb9,inactive: -0.609
21,GCCAAUGCUUCCAUUACCATT against Abca17,inactive: 0.141
22,GUGCAUCUACAACAUCGGCTT against Plp2,inactive: 0.913
23,GGCUCAGAUACUCUUAUAATT against Aknad1,active: -3.24

# Part of the list above, as tab-separated lines:
row	Sequence	z-score
2	GCUGGCUAGUUUGGGCAUATT against Tsc22d4	inactive: 1.27
5	GGAUAACUCUUUCAAAGACTT against Lrit2	inactive: 0.768
10	GCUCCUACUACUGCUUUGCTT against Crem	inactive: 0.979
12	GGGUGAGAAUCAGCUAUACTT against Coro7	inactive: -0.37
13	GCUCUGUAAUAUACUUGUATT against Gtf2i	inactive: -1.62
20	GGUGUUUUAAGAUUGAAUGTT against Ccn1	inactive: 0.782
21	CCAAGUCUUGUAGUGGAGUTT against Vdac3	inactive: -0.269
2	GACCUAAGCUCAUUGACCUTT against Vmn1r13	inactive: 0.356
5	GGUCUAGCUCCAAUUGGAUTT against Inca1	inactive: -0.631
15	GGAAAGAUAGAAGACAAACTT against Spry4	inactive: -0.0777
16	CCAUGGUUCUCAUUAGUAATT against Adk	inactive: -1.29
22	GUGCAUCUACAACAUCGGCTT against Plp2	inactive: 0.913

# Additional results follow.

row,Sequence,z-score
1,CGGACCCGAGUUCGAGAAATT against Cherp,inactive: 0.0302
2,GCAGCAUCCAAUAAAGGGATT against Car1,inactive: 0.267
3,GCAGCGAUAUGACAGACUCTT against Csrnp1,inactive: -0.136
4,GGCUGUGGACUUUUGUAAUTT against Rmc1,inactive: 0.00337
5,ACUCAGUCAUUAAAGAGUGTT against G430095P16Rik,inactive: 0.447
6,GGAACUCUAUGCCAAUACCTT against Fhl2,inactive: 0.472
7,GGCUUCAAAAACGACUAAATT against Cep83,inactive: -0.212
8,GGAUAUGUUGAAAGACAGCTT against Ccdc158,inactive: 0.296
9,GGGUCAUGAAACCUACCUUTT against Hikeshi,inactive: 0.182
10,GCCCUGCUGUUGUCAGUCUTT against Krtap5-1,inactive: -0.499
11,GCAAGUCAAGCUAGAAAAATT against Slc16a1,inactive: -0.46
12,GGAAAAAGCCAAGCUCAUCTT against Syt3,inactive: -1.5
13,GGACAACAAGAUCAGGACCTT against Akap4,inactive: 0.535
14,GCCUGACAAUAGUCAUUUCTT against Olfr985,active: -2.03
15,GGGACAGCAGUUCAUUCUATT against Cryba2,inactive: 0.954
16,GGCUCCAAGUCUACACAACTT against Dnajc6,active: 2.82
17,GGAACAUCAUCAACCACUATT against Olfr911-ps1,inactive: -1.53
18,CGUUCAUGUAUUUGAUGUATT against Asb4,inactive: -0.789
19,CCUUACUGGGUUAGAGAUGTT against Sdf2,inactive: -0.735
20,GAGAGAAUCCGUCAACGGATT against 4833420G17Rik,inactive: 0.667
21,GGGUGUUCAUACAAGCCGUTT against Zp1,inactive: -0.164
22,CCUGAUCUUGCACUCGAUGTT against Tbx6,inactive: 0.422
